Some of these results come from one statement about several compounds together.
Target: T1, recombinant murine Aurora A enzyme (Mus musculus, UniProt P97477)
T1 construct: hexahistidine (His6) (N); made in house; host or cells: insect cells, baculovirus (Bac-to-Bac, Invitrogen)
Assay: Aurora A DELFIA Kinase Assay
Format: biochemical
Details: 250 μM ATP, threshold less than or equal to 1.0 μM

Chains of the proteins cited; added tags and fusions are not shown. Lines headed by an entry give the natural chain unless they say otherwise; changes in a name come on top.
UniProt P97477: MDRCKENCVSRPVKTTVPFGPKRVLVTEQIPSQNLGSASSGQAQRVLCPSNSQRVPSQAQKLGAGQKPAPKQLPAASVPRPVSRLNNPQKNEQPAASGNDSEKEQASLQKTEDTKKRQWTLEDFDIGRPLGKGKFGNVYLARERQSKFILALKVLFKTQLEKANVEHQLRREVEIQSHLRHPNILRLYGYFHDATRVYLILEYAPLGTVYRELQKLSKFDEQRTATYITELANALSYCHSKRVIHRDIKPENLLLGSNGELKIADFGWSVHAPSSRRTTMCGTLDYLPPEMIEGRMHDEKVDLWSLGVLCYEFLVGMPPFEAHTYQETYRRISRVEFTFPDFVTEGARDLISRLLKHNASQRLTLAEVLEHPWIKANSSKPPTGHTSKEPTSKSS

SMILES	IC50 [nM]
CCOC(=O)c1cnc(Nc2ncc3c(n2)-c2ccc(Cl)cc2C(c2c(F)cccc2F)=NC3)o1 [Compound I-363, ethyl 2-{[9-chloro-7-(2,6-difluorophenyl)-5H-pyrimido[5,4-d][2]benzazepin-2-yl]amino}-1,3-oxazole-5-carboxylate]	≤ 1000
CN1CCN(CCCNC(=O)c2ccc(Nc3ncc4c(n3)-c3ccc(Cl)cc3C(c3cccc(F)c3)=NC4)cc2)CC1 [Compound I-157, 4-[9-Chloro-7-(3-fluoro-phenyl)-5H-benzo[c]pyrimido[4,5-e]azepin-2-ylamino]-N-[3-(4-methyl-piperazin-1-yl)-propyl]-benzamide]	≤ 1000
CNC1CCN(C(=O)c2ccc(Nc3ncc4c(n3)-c3ccc(Cl)cc3C(c3ccccc3C(F)(F)F)=NC4)cc2)CC1 [Compound I-288, 9-chloro-N-(4-{[4-(methylamino)piperidin-1-yl]carbonyl}phenyl)-7-[2-(trifluoromethyl)phenyl]-5H-pyrimido[5,4-d][2]benzazepin-2-amine]	≤ 1000
O=C(NC1CCNCC1)c1ccc(Nc2ncc3c(n2)-c2ccc(Cl)cc2C(c2ccccc2F)=NC3)cc1 [Compound I-16, 4-[9-Chloro-7-(2-fluoro-phenyl)-5H-benzo[c]pyrimido[4,5-e]azepin-2-ylamino]-N-piperidin-4-yl-benzamide]	≤ 1000
CNCCNC(=O)c1ccc(Nc2ncc3c(n2)-c2ccc(Cl)cc2C(c2ccccc2F)=NC3)cc1 [Compound I-1, 4-[9-Chloro-7-(2-fluoro-phenyl)-5H-benzo[c]pyrimido[4,5-e]azepin-2-ylamino]-N-(2-methylamino-ethyl)-benzamide]	≤ 1000
Oc1ccc(Nc2ncc3c(n2)-c2ccc(Cl)cc2C(c2ccccc2Cl)=NC3)cc1 [Compound I-45, 4-[9-Chloro-7-(2-chloro-phenyl)-5H-benzo[c]pyrimido[4,5-e]azepin-2-ylamino]-phenol]	≤ 1000
CC1CN(C(=O)c2ccc(Nc3ncc4c(n3)-c3ccc(Cl)cc3C(c3c(F)cccc3Cl)=NC4)cc2)CC(C)N1 (centres unmarked) [Compound I-324, 9-chloro-7-(2-chloro-6-fluorophenyl)-N-{4-[(3,5-dimethylpiperazin-1-yl)carbonyl]phenyl}-5H-pyrimido[5,4-d][2]benzazepin-2-amine]	≤ 1000
COc1cccc(F)c1C1=NCc2cnc(Nc3cccc(C(=O)N4CCC(N(C)C)CC4)c3)nc2-c2ccc(Cl)cc21 [Compound I-229, 9-chloro-N-(3-{[4-(dimethylamino)piperidin-1-yl]carbonyl}phenyl)-7-(2-fluoro-6-methoxyphenyl)-5H-pyrimido[5,4-d][2]benzazepin-2-amine]	≤ 1000
CNC(=O)c1ccc(Nc2ncc3c(n2)-c2ccc(Cl)cc2C(c2c(F)cccc2F)=NC3)cc1 [Compound I-334, 4-{[9-chloro-7-(2,6-difluorophenyl)-5H-pyrimido[5,4-d][2]benzazepin-2-yl]amino}-N-methylbenzamide]	≤ 1000
O=C(O)c1cnc(Nc2ncc3c(n2)-c2ccc(Cl)cc2C(c2c(F)cccc2F)=NC3)o1 [Compound I-364, 2-[9-Chloro-7-(2,6-difluoro-phenyl)-5H-benzo[c]pyrimido[4,5-e]azepin-2-ylamino]-oxazole-5-carboxylic acid]	≤ 1000
CNC1CCN(C(=O)c2ccc(Nc3ncc4c(n3)-c3ccc(Cl)cc3C(c3c(F)cccc3Cl)=NC4)cc2)C1 (centres unmarked) [Compound I-327, 9-chloro-7-(2-chloro-6-fluorophenyl)-N-(4-{[3-(methylamino)pyrrolidin-1-yl]carbonyl}phenyl)-5H-pyrimido[5,4-d][2]benzazepin-2-amine]	≤ 1000
